# Source: PubChem BioAssay AID1671190 (National Center for Advancing Translational Sciences (NCATS), 2021)
# Chains of the proteins cited; added tags and fusions are not shown.
# UniProt P18054, whole entry, looked up: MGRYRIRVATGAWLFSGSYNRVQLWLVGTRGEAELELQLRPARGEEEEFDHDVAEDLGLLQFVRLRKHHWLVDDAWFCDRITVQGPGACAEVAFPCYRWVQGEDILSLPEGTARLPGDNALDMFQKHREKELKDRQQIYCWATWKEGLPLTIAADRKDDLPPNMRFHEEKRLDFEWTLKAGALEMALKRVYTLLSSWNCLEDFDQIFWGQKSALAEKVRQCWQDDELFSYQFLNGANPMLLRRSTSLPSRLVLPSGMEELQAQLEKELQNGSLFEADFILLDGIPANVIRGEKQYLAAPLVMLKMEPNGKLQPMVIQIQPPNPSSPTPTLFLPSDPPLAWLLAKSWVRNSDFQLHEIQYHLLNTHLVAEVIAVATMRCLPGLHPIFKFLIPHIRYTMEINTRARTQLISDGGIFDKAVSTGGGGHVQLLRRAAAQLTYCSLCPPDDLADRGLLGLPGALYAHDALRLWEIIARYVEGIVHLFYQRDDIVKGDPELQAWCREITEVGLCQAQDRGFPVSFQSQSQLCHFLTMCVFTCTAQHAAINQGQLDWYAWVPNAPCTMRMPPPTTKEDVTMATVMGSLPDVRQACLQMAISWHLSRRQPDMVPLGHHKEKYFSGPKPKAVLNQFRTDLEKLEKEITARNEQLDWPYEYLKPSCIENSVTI
# In all, about 580,000 compounds went through this assay and about 6,100 (1.1%) were called active. This list was built around the results that the source calls inconclusive (neither active nor inactive); the mix of calls is not that of the screen. Calls come from the whole dose curve; as a rule, active = well fitted inhibition curve with a large enough effect; inconclusive = small, poorly fitted or top-dose-only effect, or another doubt; inactive = no such curve, though single readings can be large or run the other way. Potencies of inconclusive entries are doubtful fits and often do not repeat.
# Biological target: Polyunsaturated fatty acid lipoxygenase ALOX12 (Homo sapiens) (UniProt P18054)
# Assay: Primary qHTS assay for inhibitors of human arachidonate 12S-lipoxygenase (ALOX12): Round 2
# Conditions: purified 12hLO, xylenol orange hydroperoxide absorbance; activity change, negative = inhibition: at 108 µM (top of the series) unless noted
# Summary of the method: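 Purified human 12hLO (150 nM final) in 25 mM Hepes, 0.01% Triton X-100, pH 7.0 was preincubated 15 min at room temperature with compound. Then 40 uM arachidonic acid was added, 30 min. Hydroperoxide was read by Fe-XO absorbance ratio 573/405 nm.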
# % is set by controls: 0 for no effect and ±100 for the full control effect; potency is the fitted concentration of half-maximal effect.
Compound,Potency,"activity change, negative = inhibition"
Cc1ccc(Cl)c(OCC(O)CN(CCO)CCO)c1 (configuration not stated),"inconclusive: 100 µM [inhibitor, partial curve, poor fit]",
Cc1cccc(Cl)c1NC(=O)Cn1c(C)cc2nc3n(c(=O)c21)CCCCC3,"inconclusive: 70.8 µM [inhibitor, partial curve, poor fit]",
NC(=O)c1[nH]ncc1NCc1cccnc1,"inconclusive: 25.1 µM [inhibitor, partial curve]",
COc1ccc(Br)cc1C(=O)NCC1(c2ccccc2)CCOCC1,"inconclusive: 50.1 µM [inhibitor, full curve, poor fit]",
CCCN(CCC)CC(O)Cn1cc(/C=C/C(=O)c2ccccc2)c2ccccc21 (configuration not stated),"inconclusive: 50.1 µM [inhibitor, partial curve, poor fit]",
NC(=S)COc1ccccc1,"inconclusive: 56.2 µM [inhibitor, partial curve, poor fit]",
CCC(C)NC(=S)Nc1ccc(C(=O)OC)cc1 (configuration not stated),inactive,
Cc1ccc(C)c(S(=O)(=O)N/N=C/c2ccc(F)cc2)c1,"inconclusive: 31.6 µM [inhibitor, single point]",
CCOC(=O)c1cccn1C1C(=O)N(Cc2ccc3c(C)cc(=O)oc3c2)c2ccc(Cl)cc21 (configuration not stated),"inconclusive: 50.1 µM [inhibitor, partial curve, poor fit]",
O=C1NC(Cc2ccccc2)c2nc3cc(Cl)ccc3c(=O)n2-c2ccccc21 (configuration not stated),inactive,
N#Cc1ccc2c(c1)N(CCCN1CCC(O)CC1)c1ccccc1S2,"inconclusive: 89.1 µM [inhibitor, single point]",
Cc1cn2nc(C(=O)NC(C)c3ccccc3)cc2c(N2CCCC2)n1 (configuration not stated),inactive,
CCN1CCN(C(=O)CCc2nc3ccccc3n2-c2ccccc2)CC1,inactive,
CC(C)C[C@H](NC(=O)c1nc[nH]c1C(=O)N1CCNCC1)C(=O)OCc1ccccc1,inactive,
CCC(CC)C(=O)Nc1nnc2n1CCS2,"inconclusive: 28.2 µM [inhibitor, partial curve, poor fit]",
C#CCOc1ccccc1C(=O)NNc1ccc([N+](=O)[O-])cc1[N+](=O)[O-],"inconclusive: 112 µM [inhibitor, single point]",
COC(=O)C1=C(N)OC2=C(C(=O)CC(C)(C)C2)C1c1cccc(Cl)c1 (configuration not stated),"inconclusive: 63.1 µM [inhibitor, partial curve, poor fit]",
COCCCNc1ccn2nc(-c3ccc(CC(C)C)cc3)cc2n1,"inconclusive: 100 µM [inhibitor, single point]",
CCN(CC)S(=O)(=O)c1ccc(OC)c(NC(=S)Nc2ccc(C)c(C)c2)c1,"inconclusive: 39.8 µM [inhibitor, partial curve, poor fit]",
Cc1[nH]n(-c2cccc3ccccc23)c(=O)c1/C=N/c1sc2c(c1C#N)CCC2,"inconclusive: 44.7 µM [inhibitor, partial curve]",
COc1ccccc1NC(=O)CSc1ccc(-c2ccc(-n3ccnc3)cc2)nn1,inactive,
O=C(NC1CCCC1)c1ccc2c(c1)-c1ccccc1C2,"inconclusive: 35.5 µM [inhibitor, partial curve, poor fit]",
O=C1OCC2(CCN(Cc3ccn[nH]3)C2)N1CCN1CCOCC1 (configuration not stated),,inconclusive: -31.1% [inhibitor] [at 176 µM]

Compound,Potency,"activity change, negative = inhibition"
O=c1oc(-c2ccc(F)cc2)nn1CC(O)COc1ccc(Br)cc1 (configuration not stated),"inconclusive: 100 µM [inhibitor, single point]",
Cc1ccc(N/N=C/c2ccc(C(C)(C)C)cc2)cc1Cl,"inconclusive: 0.447 µM [inhibitor, full curve, poor fit]",
Cc1cc(NC(=O)COC(=O)c2cc3ccccc3o2)no1,"inconclusive: 112 µM [inhibitor, single point]",
Cc1ccc(S(=O)(=O)CCC(=O)c2ccc(O)cc2O)cc1,"inconclusive: 50.1 µM [inhibitor, partial curve, poor fit]",
O=C(O)CCCCCN1C(=O)C(O)=C(C(=O)/C=C/c2ccccc2)C1c1cccc([N+](=O)[O-])c1 (configuration not stated),"inconclusive: 50.1 µM [inhibitor, partial curve, poor fit]",
CCc1cc(C(c2ccc(F)cc2)N2CCN(CC)CC2)c(NC(=O)c2ccco2)s1 (configuration not stated),active: 10 µM,
COc1ccc(CC(=O)NNC(=O)CSc2nc(C)c(C)c(=O)[nH]2)cc1,inactive,
COc1cc2c(cc1OC)C(C)N(C(C)=O)CC2 (configuration not stated),inactive,
COc1cccc(Cc2nc3ccccc3nc2SCC(=O)Nc2ccccc2F)c1,"inconclusive: 126 µM [inhibitor, partial curve, poor fit]",
O=C(Nc1sc2c(c1C(=O)NC1CCCCC1)CCC2)c1ccco1,"inconclusive: 50.1 µM [inhibitor, partial curve, poor fit]",
Cc1ccc(Nc2cc(-c3cccc(N4C(=O)c5ccccc5C4=O)c3)ncn2)cc1NS(C)(=O)=O,"inconclusive: 8.63 µM [inhibitor, partial curve, poor fit]",
COc1ccc(C2C(C#N)=C(N)Oc3cc(C)[nH]c(=O)c32)c(OC)c1OC (configuration not stated),"inconclusive: 22.4 µM [inhibitor, partial curve, poor fit]",
COCCOCC(=O)N1CCC2(CC1)CC(N1CCCCC1)CCO2 (configuration not stated),inactive,
CCC(=O)c1ccc(OCCn2cnc3ccccc32)cc1,"inconclusive: 35.5 µM [inhibitor, full curve, poor fit]",
CCCOc1ccc(-c2nonc2NC(=O)Cc2ccc(OC)cc2)cc1,inactive,
N#CCC(=O)Nc1ccc(C(=O)OCC(=O)c2ccc3c(c2)NC(=O)CO3)cc1,inactive,
Nc1nnc(SCC(=O)OCC(=O)c2ccccc2Br)s1,inactive,
COc1cc(/C=C/C(=O)O)ccc1OCc1cnc(Cl)s1,"inconclusive: 44.7 µM [inhibitor, partial curve, poor fit]",
Cc1ccsc1C(=O)NC1CCN(c2cnn(Cc3ccccc3)c(=O)c2)CC1,inactive,
Cc1cc(C(=O)NNc2ccc(C)c(C)c2)no1,inactive,
CCOC(=O)c1cccnc1SC(CC)C(=O)N1CCOCC1 (configuration not stated),inactive,
Cc1cc(=O)[nH]c(Sc2c(-c3ccccc3)c3ccccc3[nH]c2=O)n1,"inconclusive: 35.5 µM [inhibitor, partial curve, poor fit]",
CCC(Sc1ccc(Cl)cc1)C(=O)O (configuration not stated),"inconclusive: 50.1 µM [inhibitor, partial curve, poor fit]",

Compound,Potency,"activity change, negative = inhibition"
COc1ccc(S[C@]2(c3nc(C)no3)CC(=O)N(c3ccccc3)[C@@H]2c2ccc(OC)cc2)cc1,"inconclusive: 39.8 µM [inhibitor, partial curve]",
Cc1ccc(C)c(-c2cc(-c3ccccc3)c3ccccc3n2)c1,inactive,
CCN(CC)C(=O)CSc1nnc2nnc3cc(OC)ccc3n12,"inconclusive: 31.6 µM [inhibitor, partial curve, poor fit]",
CN1CCN(C(=O)c2sc(=S)n(-c3ccccc3)c2N)CC1,"inconclusive: 44.7 µM [inhibitor, partial curve]",
O=C(NC1CC(=O)N(c2ccc3c(c2)OCCO3)C1)c1ccc(S(=O)(=O)N2CCOCC2)cc1 (configuration not stated),inactive,
COc1cccc(C(=O)NC2C(=O)N3C(C(=O)O)=C(COC(C)=O)CSC23)c1 (configuration not stated),"inconclusive: 44.7 µM [inhibitor, partial curve, poor fit]",
Cc1ccc(SCCC(=O)OCC(=O)c2cc(Cl)ccc2Cl)cc1,"inconclusive: 14.1 µM [inhibitor, full curve, poor fit]",
COc1ccccc1C(=O)N1CCCN(c2nnc3cccc(C)n23)CC1,inactive,
COc1ccc(CCNC(=O)C23CN(Cc4ccccc4)CC2C(c2cccc([N+](=O)[O-])c2)=NO3)cc1 (configuration not stated),"inconclusive: 3.55 µM [inhibitor, full curve, poor fit]",
COc1cc(NS(=O)(=O)c2cc(C(=O)N3CCCCCC3)cs2)cc(OC)c1,inactive,
O=C(CSc1nc(-c2ccccc2)c(-c2ccccc2)o1)N1CCOCC1,inactive,
COc1ccc(/C=C/c2nc3cc(C)c(C)cc3s2)c(OC)c1OC,"inconclusive: 0.0891 µM [inhibitor, full curve, poor fit]",
CCOc1cc(-c2cc(-c3ccc(NC(C)=O)cc3)nc(N)c2C#N)ccc1O,"inconclusive: 39.8 µM [inhibitor, partial curve, poor fit]",
COc1ccccc1N1CCN(S(=O)(=O)c2cc3[nH]c(=O)c(=O)[nH]c3cc2C)CC1,"inconclusive: 63.1 µM [inhibitor, partial curve, poor fit]",
CSc1cccc(Nc2cc(C(=O)NCCCN(Cc3ccccc3)C(C)C)c3ccccc3n2)c1,"inconclusive: 50.1 µM [inhibitor, partial curve]",
Cc1ccc(NC2c3ncccc3C(=O)N2Cc2ccc(F)cc2)cc1 (configuration not stated),inactive,
COc1ccc(NC(=O)CSCC(=O)Nc2cc(Cl)ccc2N2CCOCC2)cc1,"inconclusive: 1.41 µM [inhibitor, full curve, poor fit]",
CCc1cc2c(CN3CCN(C(=O)C4COc5ccccc5O4)CC3)cc(=O)oc2cc1O (configuration not stated),"inconclusive: 50.1 µM [inhibitor, partial curve, poor fit]",
COCCc1noc([C@@H]2CN(Cc3ccc(F)cc3)C[C@H]2CO)n1,inactive,
O=C1CCN(C(=O)CCc2c[nH]c3ccccc23)CCCC(C(=O)NCc2ccccc2)CCN1 (configuration not stated),inactive,
CCOc1ccc(S(=O)(=O)N2CCCCC2)cc1NC(=O)CSCc1c(C)noc1C,"inconclusive: 79.4 µM [inhibitor, partial curve, poor fit]",

# Exported as tab-separated lines: 3 of the compounds above.
Compound	Potency	activity change, negative = inhibition
Cc1ccc(C)c(-c2cc(-c3ccccc3)c3ccccc3n2)c1	inactive	
CCN(CC)C(=O)CSc1nnc2nnc3cc(OC)ccc3n12	inconclusive: 31.6 µM [inhibitor, partial curve, poor fit]	
CN1CCN(C(=O)c2sc(=S)n(-c3ccccc3)c2N)CC1	inconclusive: 44.7 µM [inhibitor, partial curve]	
